The target in test [1] is Streptavidin labelled with Cy5 (UniProt P22629). Put plainly: double substitution/deletion peptide microarray, Cy5-streptavidin.
Test [2] shares this target. Put plainly: extension peptide microarray (160,000 peptides, five replicates), Cy5-streptavidin.

No constants are given. Whether binding was seen depends on the method and setting. Some entries that bind do so weakly or less than the wild type.

For ADYLAEYHGG, the binding result in test [1] was “binds”.
On to NSFDEWLQK, for which the binding entry in test [2] is recorded as “binds”.
For the molecule NSFDDWLAKGG, the binding entry in test [1] was “binds”.
In the case of YERPGWKLGT, in test [1], the binding entry is “binds”.
Take WTHPQFEQK: the binding entry in test [1] was “binds”.
For DYLAEYHGG, the binding result in test [2] was “binds”.
Take YERPGWKLS: in test [2], the binding result is reported as “binds”.
Same read-out and setting: as for WTHPQFE, the entry is “binds”.

The values above are taken from patent US20190086411A1 (ROCHE SEQUENCING SOLUTIONS, published 2019).
